Assay results: patent publication US20160235069A1, “N-ACRYLIMINO HETEROCYCLIC COMPOUNDS” (BASF SE, priority 2013, published 2016)
Some results were stated once for a whole list of compounds, not compound by compound. At least one structure is not confirmed: it was looked up by name or label, or the drawing left a doubt.

Tests used:
Megoura viciae = assay: Vetch aphid (Megoura viciae), contact or systemic, broad bean leaf disks; format: in vivo; conditions: 2500 ppm; adult aphids on sprayed leaf disks; 5 days
Description: For evaluating control of vetch aphid (Megoura viciae) through contact or systemic means the test unit consisted of 24-well-microtiter plates containing broad bean leaf disks.
The compounds were formulated using a solution containing 75% v/v water and 25% v/v DMSO. Different concentrations of formulated compounds were sprayed onto the leaf disks at 2.5 μl, using a custom built micro atomizer, at two replications.
After application, the leaf disks were air-dried and 5-8 adult aphids were placed on the leaf disks inside the microtiter plate wells. The aphids were then allowed to suck on the treated leaf disks and were incubated at about 23±1° C. and about 50±5% relative humidity for 5 days. Aphid mortality and fecundity was then visually assessed.

Myzus persicae = assay: Green peach aphid (Myzus persicae), systemic, artificial diet in 96-well plates; format: in vivo; conditions: 2500 ppm; adult aphids on treated diet; 3 days
Excerpt: General conditions: If not otherwise specified, most test solutions are to be prepared as follows: The active compound is to be dissolved at the desired concentration in a mixture of 1:1 (vol:vol) distilled water:acteon. Further, the test solutions are to be prepared at the day of use (and, if not otherwise specified, in general at concentrations wt/vol).
For evaluating control of green peach aphid (Myzus persicae) through systemic means, the test unit consists of 96-well-microtiter plates containing liquid artificial diet under an artificial membrane.
The compounds are formulated using a solution containing 75% v/v water and 25% v/v DMSO. Different concentrations of formulated compounds are pipetted into the aphid diet, using a custom built pipetter, at two replications.
After application, 5-8 adult aphids are placed on the artificial membrane inside the microtiter plate wells. The aphids are then allowed to suck on the treated aphid diet and incubated at about 23+1° C. and about 50+5% relative humidity for 3 days. Aphid mortality and fecundity is then visually assessed.

## CCCC=C(F)C(=O)N=c1ccccn1Cc1ccc(Cl)nc1 (mixture of isomers) [Compound E1.7]
Megoura viciae
  mortality in comparison with untreated controls: at least 75%
Myzus persicae
  mortality in comparison with untreated controls: at least 75%

## CCOC(=O)C=CC(=O)N=c1ccccn1Cc1ccc(Cl)nc1 (mixture of isomers) [Compound E1.8]
Megoura viciae
  mortality in comparison with untreated controls: at least 75%
Myzus persicae
  mortality in comparison with untreated controls: at least 75%

## COc1ccc(C(F)=C(F)C(=O)N=c2ccccn2Cc2ccc(Cl)nc2)cc1 (mixture of isomers) [Compound E1.17]
Myzus persicae
  mortality in comparison with untreated controls: at least 75%

## CSC(C)CC=C(C#N)C(=O)N=c1ccccn1Cc1ccc(Cl)nc1 (mixture of isomers) [Compound E1.37]
Megoura viciae
  mortality in comparison with untreated controls: at least 75%
Myzus persicae
  mortality in comparison with untreated controls: at least 75%

## N#CC(=Cc1cc[nH]c1)C(=O)N=c1ccccn1Cc1ccc(Cl)nc1 (mixture of isomers) [Compound E1.39]
Megoura viciae
  mortality in comparison with untreated controls: at least 75%
Myzus persicae
  mortality in comparison with untreated controls: at least 75%

## N#CC(=Cc1ccccc1)C(=O)N=c1ccccn1Cc1ccc(Cl)nc1 (mixture of isomers) [Compound E1.40]
Megoura viciae
  mortality in comparison with untreated controls: at least 75%
Myzus persicae
  mortality in comparison with untreated controls: at least 75%

## COc1cc(C=C(C#N)C(=O)N=c2ccccn2Cc2ccc(Cl)nc2)ccc1C (mixture of isomers) [Compound E1.41]
Megoura viciae
  mortality in comparison with untreated controls: at least 75%
Myzus persicae
  mortality in comparison with untreated controls: at least 75%

## N#CC(=Cc1sccc1Cl)C(=O)N=c1ccccn1Cc1ccc(Cl)nc1 (mixture of isomers) [Compound E1.44]
Megoura viciae
  mortality in comparison with untreated controls: at least 75%
Myzus persicae
  mortality in comparison with untreated controls: at least 75%

## N#CC(=Cc1cccnc1)C(=O)N=c1ccccn1Cc1ccc(Cl)nc1 (mixture of isomers) [Compound E1.46]
Megoura viciae
  mortality in comparison with untreated controls: at least 75%
Myzus persicae
  mortality in comparison with untreated controls: at least 75%

## N#CC(=CCCc1ccccc1)C(=O)N=c1ccccn1Cc1ccc(Cl)nc1 (mixture of isomers) [Compound E1.47]
Myzus persicae
  mortality in comparison with untreated controls: at least 75%

## N#CC(=CC1CCOCC1)C(=O)N=c1ccccn1Cc1ccc(Cl)nc1 (mixture of isomers) [Compound E1.49]
Myzus persicae
  mortality in comparison with untreated controls: at least 75%

## CCCCCC=C(C#N)C(=O)N=c1ccccn1Cc1ccc(Cl)nc1 (mixture of isomers) [Compound E1.50]
Megoura viciae
  mortality in comparison with untreated controls: at least 75%
Myzus persicae
  mortality in comparison with untreated controls: at least 75%

## N#CC(=Cc1cn2ccccc2n1)C(=O)N=c1ccccn1Cc1ccc(Cl)nc1 (mixture of isomers) [Compound E1.52]
Myzus persicae
  mortality in comparison with untreated controls: at least 75%

## CCCCC(C=C(C#N)C(=O)N=c1ccccn1Cc1ccc(Cl)nc1)CC (mixture of isomers) [Compound E1.55]
Myzus persicae
  mortality in comparison with untreated controls: at least 75%

## CC(C)(C=C(C#N)C(=O)N=c1ccccn1Cc1ccc(Cl)nc1)Cc1cccnc1 (mixture of isomers) [Compound E1.56]
Myzus persicae
  mortality in comparison with untreated controls: at least 75%

## N#CC(=Cc1ccccc1F)C(=O)N=c1ccccn1Cc1ccc(Cl)nc1 (mixture of isomers) [Compound E1.57]
Myzus persicae
  mortality in comparison with untreated controls: at least 75%

## N#CC(=CC1CCCCC1)C(=O)N=c1ccccn1Cc1ccc(Cl)nc1 (mixture of isomers) [Compound E1.59]
Myzus persicae
  mortality in comparison with untreated controls: at least 75%

## CC1(C)C2CCC(C=C(C#N)C(=O)N=c3ccccn3Cc3ccc(Cl)nc3)C1C2 (mixture of isomers) [Compound E1.60]
Myzus persicae
  mortality in comparison with untreated controls: at least 75%

## N#CC(=CC1CCCSC1)C(=O)N=c1ccccn1Cc1ccc(Cl)nc1 (mixture of isomers) [Compound E1.61]
Myzus persicae
  mortality in comparison with untreated controls: at least 75%

## CC(C=C(C#N)C(=O)N=c1ccccn1Cc1ccc(Cl)nc1)C(C)(C)C (mixture of isomers) [Compound E1.65]
Myzus persicae
  mortality in comparison with untreated controls: at least 75%

## CC(C)OC(C)C=C(C#N)C(=O)N=c1ccccn1Cc1ccc(Cl)nc1 (mixture of isomers) [Compound E1.66]
Myzus persicae
  mortality in comparison with untreated controls: at least 75%

## CSCC(C)C=C(C#N)C(=O)N=c1ccccn1Cc1ccc(Cl)nc1 (mixture of isomers) [Compound E1.67]
Myzus persicae
  mortality in comparison with untreated controls: at least 75%

## CC1CCC(C=C(C#N)C(=O)N=c2ccccn2Cc2ccc(Cl)nc2)CC1 (mixture of isomers) [Compound E1.68]
Myzus persicae
  mortality in comparison with untreated controls: at least 75%

## N#CC(=CCC1CCOCC1)C(=O)N=c1ccccn1Cc1ccc(Cl)nc1 (mixture of isomers) [Compound E1.69]
Megoura viciae
  mortality in comparison with untreated controls: at least 75%
Myzus persicae
  mortality in comparison with untreated controls: at least 75%

## COCCOC(C)C=C(C#N)C(=O)N=c1ccccn1Cc1ccc(Cl)nc1 (mixture of isomers) [Compound E1.71]
Megoura viciae
  mortality in comparison with untreated controls: at least 75%
Myzus persicae
  mortality in comparison with untreated controls: at least 75%

## N#CC(=CC1CCCCCCC1)C(=O)N=c1ccccn1Cc1ccc(Cl)nc1 (mixture of isomers) [Compound E1.72]
Megoura viciae
  mortality in comparison with untreated controls: at least 75%
Myzus persicae
  mortality in comparison with untreated controls: at least 75%

## CCOC(=O)C1CC1C=C(C#N)C(=O)N=c1ccccn1Cc1ccc(Cl)nc1 (mixture of isomers) [Compound E1.73]
Megoura viciae
  mortality in comparison with untreated controls: at least 75%
Myzus persicae
  mortality in comparison with untreated controls: at least 75%

## N#CC(=Cc1ccccc1C(F)(F)F)C(=O)N=c1ccccn1Cc1ccc(Cl)nc1 (mixture of isomers) [Compound E1.74]
Megoura viciae
  mortality in comparison with untreated controls: at least 75%
Myzus persicae
  mortality in comparison with untreated controls: at least 75%

## N#CC(=Cc1cncc(Br)c1)C(=O)N=c1ccccn1Cc1ccc(Cl)nc1 (mixture of isomers) [Compound E1.75]
Megoura viciae
  mortality in comparison with untreated controls: at least 75%
Myzus persicae
  mortality in comparison with untreated controls: at least 75%

## COC(C)C=C(C#N)C(=O)N=c1ccccn1Cc1ccc(Cl)nc1 (mixture of isomers) [Compound E1.76]
Megoura viciae
  mortality in comparison with untreated controls: at least 75%
Myzus persicae
  mortality in comparison with untreated controls: at least 75%

## CC(C)C(C)C=C(C#N)C(=O)N=c1ccccn1Cc1ccc(Cl)nc1 (mixture of isomers) [Compound E1.77]
Megoura viciae
  mortality in comparison with untreated controls: at least 75%
Myzus persicae
  mortality in comparison with untreated controls: at least 75%

## COc1ccc(C=C(C#N)C(=O)N=c2ccccn2Cc2ccc(Cl)nc2)cc1 (mixture of isomers) [Compound E1.80]
Myzus persicae
  mortality in comparison with untreated controls: at least 75%

## COC1CCC(C)C(C=C(C#N)C(=O)N=c2ccccn2Cc2ccc(Cl)nc2)O1 (mixture of isomers) [Compound E1.86]
Myzus persicae
  mortality in comparison with untreated controls: at least 75%

## CC(C)C1CCC(CC=C(C#N)C(=O)N=c2ccccn2Cc2ccc(Cl)nc2)CC1 (mixture of isomers) [Compound E1.87]
Megoura viciae
  mortality in comparison with untreated controls: at least 75%

## Cc1c(C=C(C#N)C(=O)N=c2ccccn2Cc2ccc(Cl)nc2)cnn1-c1ccccc1 (mixture of isomers) [Compound E1.89]
Myzus persicae
  mortality in comparison with untreated controls: at least 75%

## C=C(Cl)C(=O)N=c1ccccn1Cc1ccc(Cl)nc1 [Compound E1.9]
Myzus persicae
  mortality in comparison with untreated controls: at least 75%

## C=C(Br)C(=O)N=c1ccccn1Cc1ccc(Cl)nc1 [Compound E1.10]
Myzus persicae
  mortality in comparison with untreated controls: at least 75%
